Measured values taken from PMC7216583 (Parasites & Vectors, 2020).

Test system: Toxoplasma gondii RH-2F tachyzoites
Test: microbe, parasite or virus in culture
Conditions: 72 h, read-out: Parasite inhibition (%) mean

CC1=C(C(=O)O)N2C(=O)[C@@H](NC(=O)[C@H](N)c3ccccc3)[C@@H]2SC1 [Cephalexin (Cefalexin)]
inhibition of growth at 5 µM: 2.9%
